Data reported in ChEMBL document CHEMBL3046414, “Synthesis, anticancer, anti-HIV-1, and antimicrobial activity of some tricyclic triazino and triazolo[4,3-e]purine derivatives” (Med Chem Res, 2012).
≈ marks a conversion by molar mass, not a printed value.

Tested on: Escherichia coli
Test: Antimicrobial activity against Escherichia coli 5933 after 24 hr by two-fold serial dilution method
Type: functional
Conditions: Escherichia coli, 5933, 24 h

CC1(C)S[C@@H]2[C@H](NC(=O)[C@H](N)c3ccccc3)C(=O)N2[C@H]1C(=O)O [AMPICILLIN]
MIC: 10 µg/mL (≈ 28.6 µM)
